Laboratory results as given in patent US6789546B2, “Filters for preventing or reducing tobacco smoke-associated injury in the aerodigestive tract of a subject” (Technion Research & Development Foundation Ltd., priority 2001, dated 2004).
At least one structure is not confirmed: it was looked up by name or label, or the drawing left a doubt.

Key:
[1] = system: oral peroxidase (OPO); assay: OPO activity in saliva exposed in vitro to tobacco smoke (NBS-SCN assay); type: biochemical, human; conditions: 1 mM agent
[2] = system: lymphocytes; assay: Lymphocyte survival by Trypan Blue exclusion assay; type: cell-based, human; conditions: 90 μM FeCl3 + 1 mM ascorbate + 1 mM deferoxamine (FIG. 23 column 9)
Description: Saliva Collection: Saliva was collected from healthy subjects, 3 males and 3 females ranging from 21-47 years of age, under non-stimulatory conditions in a quiet room during the morning between 8 am and noon. Saliva collection was performed at least 1 h after eating by spitting into a recipient for 10 minutes, as previously described (43). Following collection, saliva was immediately centrifuged at 800×g for 10 min at 4° C. to remove cells and cell debris and the resulting supernatant was used for biochemical analyses.
Lymphocyte Isolation: Blood from 10 consenting, healthy, non-smoking subjects, 5 males and 5 females ranging from 18-55 years of age, was drawn into EDTA-containing vacutainers. Lymphocytes were isolated by Ficoll-Hypaque (Sigma) gradient centrifugation according to the manufacturer's instructions and lymphocytes were suspended at 10^7 cells/ml PBS (Beit-Ha'emek Industries, Israel), and used immediately in experiments.
A reproducible vacuum was created in the flask and upon application of vacuum for 5 s, 80-100 ml of TS from the lit cigarette was drawn into the flask. […] Saliva treatment of lymphocytes was performed by suspending these in PBS supplemented with 30% (v/v) saliva. […]
Measurement of Lymphocyte Survival: Lymphocyte viability was assessed by Trypan Blue exclusion assay.

| SMILES | loss of OPO activity in TS-treated saliva in the presence or absence of the agent [1] | prevention of the reduction of lymphocyte survival caused by FeCl3 + ascorbate [2] |
| --- | --- | --- |
| O=C1O[C@H]([C@@H](O)CO)C(O)=C1O [ascorbate] | similar |  |
| CC(=O)N(O)CCCCCNC(=O)CCC(=O)N(O)CCCCCNC(=O)CCC(=O)N(O)CCCCCN [deferoxamine] | similar | totally prevented |
